According to US20100190832A1, “Mechanism-based inhibitors of transthyretin amyloidosis: studies with biphenyl ethers and structural templates” (NATIONAL INSTITUTE OF IMMUNOLOGY., priority 2008, published 2010):
Some results were stated once for a whole list of compounds, not compound by compound.

What was measured:
[1] = tested on: Neuro2a cells; assay: Cell culture and cytotoxicity inhibition assay (MTT); conditions: compound 50 μM alone
[2] = biological target: T1, TTR (Homo sapiens, UniProt P02766); assay: Intrinsic (tryptophan) fluorescence of TTR; format: binding; conditions: pH 7.2
T1 construct: made in house

[3] = biological target: T1, TTR; assay: Congo red binding; format: biochemical; conditions: inhibitor 21.6 μM, TTR 7.2 μM, pH 4.4
[4] = biological target: T1, TTR; assay: MALDI-TOF mass spectrometry of TTR samples; format: biochemical; conditions: TTR 7.2 μM, 37° C., pH 4.4, 15 days
[5] = biological target: T1, TTR; assay: Dissociation constant by fluorescence titration (Adair equation, two sites); format: binding; conditions: pH 4.4, text
Experimental: The experiments were conducted at 25° C. After 1 h, the samples were diluted with 0.5 mL of 200 mM sodium acetate buffer pH 4.4 containing 100 mM KCl and 1 mM EDTA, vortexed, and incubated at 37° C. for 72 h. […] The stoichiometry of the binding of the inhibitors was determined by HPLC as described by Green et al., N. S. Palaninathan, S, L, Sacchettini, J. e. […] Dissociation constant of binding of these compounds to TTR was determined by fluorescence titration, and data were fitted into the Adair equation for two bind mg.
Small aliquots of 1 mM ligands solutions were successively added to the […] in 100 mM sodium acetate buffer pH 4.4 at […] under constant stirring. After each addition sample was left for 2 min. […] Readings were corrected for buffer blank, dilution and inner filter effect. The inner filter effect was corrected by using the following equation,
From the titration data the dissociation constant was determined by fitting data in following Adair equation for two binding sites-

[6] = biological target: T1, TTR; assay: Transmission electron microscopy of TTR fibrillization samples; conditions: fibrillization conditions
[7] = biological target: T2, TTR tetramer (Homo sapiens, UniProt P02766); assay: Urea denaturation (tetramer dissociation, tryptophan fluorescence); format: biochemical; conditions: TTR 1.8 μM, inhibitor 5.4 μM (1:3), 6 M urea, 25° C., up to […]
T2 construct: made in house

[8] = biological target: T1, TTR; assay: Glutaraldehyde cross-linking and SDS-PAGE; format: biochemical; conditions: pH 4.4, 15 days

| SMILES | effect of compounds alone on survival of Neuro 2A cells [1] | fluorescence intensity of TTR [2] | Congo red binding to TTR [3] | oligomeric status of TTR (MALDI-TOF) [4] | dissociation constant Kd1 [5] | fibers or aggregates seen by TEM [6] | protein dissociates (tetramer dissociation) [7] | oligomeric status of TTR (SDS-PAGE after cross-linking) [8] |
| --- | --- | --- | --- | --- | --- | --- | --- | --- |
| COc1cc(C=O)ccc1Oc1ccccc1 [Compound 9] | no effect |  |  |  |  |  |  |  |
| O=C(Nc1nnc[nH]1)c1c(Cl)ccc(Cl)c1Cl [Compound 12] | no effect | significant reduction | significantly reduced | mainly exist as tetramer | nanomolar range | devoid of any fiber or amorphous aggregates | less than 5% | migrated mainly as the tetramer |
| Oc1ccccc1-c1nnc(S)o1 [Compound 11] | no effect | significant reduction | significantly reduced | mainly exist as tetramer | nanomolar range | devoid of any fiber or amorphous aggregates | less than 5% | migrated mainly as the tetramer |
| O=C(O)c1ccc(Oc2ccc(Cl)cc2Cl)c(O)c1 [Compound 7] | no effect |  |  |  |  |  |  |  |
| O=Cc1ccc(Oc2ccc(Cl)cc2Cl)c(O)c1 [Compound 2] | no effect |  |  |  |  |  |  |  |
| COc1cc(CCl)ccc1Oc1ccccc1 [Compound 8, 3-Methoxy-4-phenoxybenzyl chloride] | no effect |  |  |  |  |  |  |  |
| OCc1ccc(Oc2ccc(Cl)cc2Cl)c(O)c1 [Compound 4] | no effect |  |  |  |  |  | less than 5% |  |
| COc1cc(C(=O)O)ccc1Oc1ccc(Cl)cc1Cl [Compound 6] | no effect |  |  |  |  |  | less than 5% |  |
| COc1cc(CCl)ccc1Oc1ccc(Cl)cc1Cl [Compound 5] |  |  | significantly reduced | mainly exist as tetramer |  | devoid of any fiber or amorphous aggregates | less than 5% | migrated mainly as the tetramer |
